Assay results from patent US7982021B2, “Nucleic acid molecules encoding emission ratiometric indicators of phosphoinositides” (The Johns Hopkins University, priority 2006, dated 2011).
At least one compound was matched to its structure with a doubt left.

System: PI3K
Experiment: Effect of PI3K inhibitors on InPAkt FRET response in NIH3T3 cells
Assay type: cell-based

SMILES | FRET change of nuclear targeted InPAkt upon inhibitor treatment (NIH3T3 cells) | InPAkt emission ratio change upon PDGF stimulation in the presence of the inhibitor (NIH3T3 cells pretreated with 20 μM inhibitor, 50 ng/ml PDGF) | emission ratio of plasma membrane targeted InPAkt after inhibitor addition (NIH3T3 cells, 20 μM inhibitor added after PDGF stimulation) | reversal of PDGF-stimulated InPAkt FRET response (NIH3T3 cells, inhibitor 20 μM added after PDGF) | emission ratio of plasma membrane-targeted InPAkt after inhibitor addition, no prior stimulation (NIH 3T3 cells, without prior PDGF stimulation) | reversal of PDGF-stimulated InPAkt FRET response (inhibitor added at 500 nM after PDGF)
O=c1cc(N2CCOCC2)oc2c(-c3ccccc3)cccc12 [LY294002] | did not produce any detectable change in FRET | no emission ratio change was observed | emission ratio decreased dramatically and reached below the initial ratio in the resting state | resulted in a decrease in emission ratios | decrease in emission ratio | 
COC[C@H]1OC(=O)c2coc3c2[C@@]1(C)C1=C(C3=O)[C@@H]2CCC(=O)[C@@]2(C)C[C@H]1OC(C)=O [wortmannin] |  |  |  |  |  | could reverse the PDGF-stimulated response
